Consider three substances from PMC10704435.

Protein sequences, listed by entry. Tags and fused reporters are not part of them. Residues count along the entry.
UniProt Q99523, residues 78-831: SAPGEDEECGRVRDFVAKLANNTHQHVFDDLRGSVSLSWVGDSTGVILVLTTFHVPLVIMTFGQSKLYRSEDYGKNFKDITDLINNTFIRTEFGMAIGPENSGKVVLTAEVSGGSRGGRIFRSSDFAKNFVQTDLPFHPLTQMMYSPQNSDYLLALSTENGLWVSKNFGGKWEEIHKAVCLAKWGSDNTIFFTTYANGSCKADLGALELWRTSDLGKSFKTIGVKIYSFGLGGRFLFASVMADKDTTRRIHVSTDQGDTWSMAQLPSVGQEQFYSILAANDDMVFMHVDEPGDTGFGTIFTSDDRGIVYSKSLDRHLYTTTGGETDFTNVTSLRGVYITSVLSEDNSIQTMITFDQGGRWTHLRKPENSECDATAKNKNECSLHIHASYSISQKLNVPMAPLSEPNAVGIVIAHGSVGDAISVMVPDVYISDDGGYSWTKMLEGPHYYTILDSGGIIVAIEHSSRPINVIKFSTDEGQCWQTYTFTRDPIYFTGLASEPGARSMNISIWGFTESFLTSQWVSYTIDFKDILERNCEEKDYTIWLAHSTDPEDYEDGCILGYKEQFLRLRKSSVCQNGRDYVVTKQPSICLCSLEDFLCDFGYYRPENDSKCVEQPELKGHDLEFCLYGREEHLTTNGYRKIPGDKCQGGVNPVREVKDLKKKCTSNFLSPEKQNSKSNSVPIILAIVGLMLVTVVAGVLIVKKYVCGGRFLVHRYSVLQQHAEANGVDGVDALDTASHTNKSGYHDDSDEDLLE
UniProt P42857: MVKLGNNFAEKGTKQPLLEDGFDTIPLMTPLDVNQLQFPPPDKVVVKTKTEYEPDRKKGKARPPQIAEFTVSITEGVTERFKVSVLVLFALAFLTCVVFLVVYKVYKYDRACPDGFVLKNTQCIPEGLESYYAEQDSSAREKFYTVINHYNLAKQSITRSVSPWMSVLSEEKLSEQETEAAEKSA
UniProt Q9Y328: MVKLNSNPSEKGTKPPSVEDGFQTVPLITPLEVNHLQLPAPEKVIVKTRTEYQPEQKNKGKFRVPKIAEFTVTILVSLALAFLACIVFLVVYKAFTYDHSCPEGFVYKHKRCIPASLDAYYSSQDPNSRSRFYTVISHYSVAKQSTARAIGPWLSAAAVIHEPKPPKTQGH

No constants are given. Whether binding was seen depends on the method and setting. In cells and extracts the contact can be indirect. Some entries that bind do so weakly or less than the wild type.

The target in assay [1] is human sortilin in pcDNA3.1 (human) (UniProt Q99523). Briefly: co-IP; transiently transfected HEK293MSR cells, lysis in 50 mM Tris-HCl pH 7.4, 150 mM NaCl, 5 mM CHAPS, 4 °C; IP with rabbit anti-sortilin (ab16640), rabbit anti-NSG1 (LS-B14123) or control rabbit IgG, protein A-agarose; Western blot. In general terms: In western blotting, separated proteins are transferred to a membrane and probed.

Assay [2] deals with human NSG1 in pcDNA3 (human) (UniProt P42857). Described as above.

Regarding “human NSG1 in pcDNA3 (from UniProt P42857 1-185)”, the binding entry in assay [1] is “binds”.

As to “human NSG2 in pcDNA3.1(+) (from UniProt Q9Y328 1-171)”, the binding result in assay [1] was “binds”.

“human sortilin in pcDNA3.1 (from UniProt Q99523 78-831) (receptor)”: the binding entry in assay [2] is “binds”.
